Experimental data as given in article PMC6334227.
No constants are given. Whether binding was seen depends on the method and setting. Binding seen in cells or lysates may run through a third protein. Some results given as binding are weak or reduced against the parent protein; the word gives no strength. Tags and fused reporters may be left off the sequences shown.

Target: T1, BRD-1::tag (C. elegans) (UniProt Q21209)
T1 sequence: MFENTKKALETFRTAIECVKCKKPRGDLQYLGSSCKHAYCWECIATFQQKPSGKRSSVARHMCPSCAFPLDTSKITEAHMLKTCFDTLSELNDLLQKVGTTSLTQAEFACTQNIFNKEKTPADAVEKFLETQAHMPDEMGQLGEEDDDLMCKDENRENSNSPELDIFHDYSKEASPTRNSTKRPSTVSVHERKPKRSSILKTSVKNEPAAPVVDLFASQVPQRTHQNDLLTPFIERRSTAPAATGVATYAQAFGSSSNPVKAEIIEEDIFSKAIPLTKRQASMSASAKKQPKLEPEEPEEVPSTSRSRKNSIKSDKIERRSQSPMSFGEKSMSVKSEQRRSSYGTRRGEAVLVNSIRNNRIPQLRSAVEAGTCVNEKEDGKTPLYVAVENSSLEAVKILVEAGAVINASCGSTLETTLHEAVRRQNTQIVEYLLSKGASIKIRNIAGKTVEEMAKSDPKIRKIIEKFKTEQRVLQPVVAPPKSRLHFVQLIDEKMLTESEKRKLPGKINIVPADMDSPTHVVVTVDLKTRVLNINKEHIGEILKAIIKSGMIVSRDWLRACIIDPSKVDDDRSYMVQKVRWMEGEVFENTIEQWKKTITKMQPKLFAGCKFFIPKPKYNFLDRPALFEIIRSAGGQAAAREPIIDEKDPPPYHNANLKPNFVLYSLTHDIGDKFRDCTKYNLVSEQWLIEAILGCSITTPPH
Test: co-IP; tandem immunoaffinity purification of the native CeBCD complex from dwIs3 worms (HA then Myc antibody columns, TEV elution), Western blot; soluble (S) and chromatin-bound (C) fractions, untreated and 12 h after 75 Gy IR; mock purification as control

B1: BRC-1 (protein, UniProt B6VQ60 1-609)
chain: MADVALRITETVARLQKELKCGICCSTYKDPILSTCFHIFCRSCINACFERKRKVQCPICRSVLDKRSCRDTYQITMAVQNYLKLSEAFKKDIENMNTFKSLPPEKMFMESQMPLDITIIPENDGKRCAPDFAIPFLPVRRKRPSRPQPPSAFAEEPAEPVEPPEPATKQPVELQSRVFPLEKLKKDVETSTETYKISREELKNVDIEEYINTLRENSTEIDEIDALFQLMPTMRQFLRNNINQLMEKFHVAPPKKSEKPANRRVSFASSQDLENIKIMTASESLETPPEPIQKLAQKPEVFKSTQNLIDLNLNTAVKKPVVVASDDDEVVEDSEGELQIDEDDLANVTCATSSTTLDADRTPKAIQDDEDRIDDELSQVPKTIVCSRIHNDADEVELLSDFYHKFLSNACRFAEDVNEHTTHLVMMNSEGRSISQKSTAYLYAIARKCVIVGRQWLVDCITTGLLLSEADYTITSCSSTIPVKIPPSIGSEMGWLRSRNDEHGKLFAGRRFMILRKFTMNPYFDYKQLIELVQQCGGEILSCYENLSPEKLYIIFSKHSKAIEESKNIENLYKCDVVTMEWVLDSISEYLILPTQPYKAVDSIGCLQD
  binding: binds
